Laboratory results taken from publication doi:10.1101/707216.
Results are given in words; binding and its absence hold for the method and conditions named. In cells and extracts the contact can be indirect. A yes stands for co-enrichment or nearness to the bait. Other partners may have been found.

Amino acid sequences for entries named in this document (tags omitted).
UniProt Q2YD98: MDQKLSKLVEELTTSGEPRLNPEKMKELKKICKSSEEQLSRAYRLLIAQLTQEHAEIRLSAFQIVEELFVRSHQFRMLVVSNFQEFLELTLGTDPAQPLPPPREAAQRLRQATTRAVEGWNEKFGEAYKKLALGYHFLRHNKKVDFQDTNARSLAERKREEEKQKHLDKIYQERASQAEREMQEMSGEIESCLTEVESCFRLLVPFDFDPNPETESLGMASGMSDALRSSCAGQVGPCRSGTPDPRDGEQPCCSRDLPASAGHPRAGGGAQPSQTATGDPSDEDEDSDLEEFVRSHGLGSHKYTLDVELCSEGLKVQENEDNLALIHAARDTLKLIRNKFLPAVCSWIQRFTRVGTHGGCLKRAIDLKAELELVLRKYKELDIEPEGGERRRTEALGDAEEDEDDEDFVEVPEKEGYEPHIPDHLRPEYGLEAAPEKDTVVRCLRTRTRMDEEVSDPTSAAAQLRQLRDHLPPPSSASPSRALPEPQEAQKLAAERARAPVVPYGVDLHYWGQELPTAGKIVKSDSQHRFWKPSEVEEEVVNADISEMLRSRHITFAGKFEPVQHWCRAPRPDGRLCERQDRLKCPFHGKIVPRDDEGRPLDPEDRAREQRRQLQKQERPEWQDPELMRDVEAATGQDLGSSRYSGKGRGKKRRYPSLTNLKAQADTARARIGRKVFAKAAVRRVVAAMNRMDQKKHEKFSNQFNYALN
UniProt Q93009: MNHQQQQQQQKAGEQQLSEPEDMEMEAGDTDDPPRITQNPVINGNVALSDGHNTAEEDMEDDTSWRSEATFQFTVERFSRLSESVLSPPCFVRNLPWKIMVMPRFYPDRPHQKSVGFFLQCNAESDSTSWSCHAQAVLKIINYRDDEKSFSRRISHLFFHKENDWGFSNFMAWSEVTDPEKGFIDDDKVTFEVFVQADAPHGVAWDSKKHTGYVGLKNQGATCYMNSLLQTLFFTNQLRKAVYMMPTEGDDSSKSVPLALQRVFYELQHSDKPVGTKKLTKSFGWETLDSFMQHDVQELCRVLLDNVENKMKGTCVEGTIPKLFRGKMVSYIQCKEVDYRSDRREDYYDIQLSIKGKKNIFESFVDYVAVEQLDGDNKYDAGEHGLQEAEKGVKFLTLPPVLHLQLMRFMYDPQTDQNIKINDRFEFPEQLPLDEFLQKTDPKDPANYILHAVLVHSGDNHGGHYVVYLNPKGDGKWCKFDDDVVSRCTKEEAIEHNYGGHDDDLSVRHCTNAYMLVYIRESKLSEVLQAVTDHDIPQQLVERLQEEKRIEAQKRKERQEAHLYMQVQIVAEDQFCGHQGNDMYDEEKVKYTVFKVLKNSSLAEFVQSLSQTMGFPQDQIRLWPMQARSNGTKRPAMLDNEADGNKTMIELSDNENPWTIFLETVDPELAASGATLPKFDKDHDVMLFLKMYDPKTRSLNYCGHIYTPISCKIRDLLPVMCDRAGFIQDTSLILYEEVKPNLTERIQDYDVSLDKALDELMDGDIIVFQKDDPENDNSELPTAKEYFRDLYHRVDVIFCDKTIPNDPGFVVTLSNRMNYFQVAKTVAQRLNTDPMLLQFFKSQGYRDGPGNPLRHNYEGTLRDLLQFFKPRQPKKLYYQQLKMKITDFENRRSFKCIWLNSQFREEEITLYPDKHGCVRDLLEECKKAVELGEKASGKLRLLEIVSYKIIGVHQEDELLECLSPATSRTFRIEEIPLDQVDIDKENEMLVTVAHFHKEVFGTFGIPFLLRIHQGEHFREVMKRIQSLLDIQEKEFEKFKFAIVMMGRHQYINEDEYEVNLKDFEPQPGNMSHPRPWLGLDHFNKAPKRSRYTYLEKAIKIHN

Molecular target: GFP-UVSSA^WT (human) (UniProt Q2YD98)
Experiment: affinity purification with mass spectrometry

Substance: USP7 (from UniProt Q93009 1-1102)
- binding: binds
